Drawing on the supplement of paper PMC10849652, this text covers log2 fold change for 35 targets.

Amino acid sequences for entries named in this document (tags omitted). A change or cut given only in a name is not applied to a line headed by its entry.
UniProt Q96NT1: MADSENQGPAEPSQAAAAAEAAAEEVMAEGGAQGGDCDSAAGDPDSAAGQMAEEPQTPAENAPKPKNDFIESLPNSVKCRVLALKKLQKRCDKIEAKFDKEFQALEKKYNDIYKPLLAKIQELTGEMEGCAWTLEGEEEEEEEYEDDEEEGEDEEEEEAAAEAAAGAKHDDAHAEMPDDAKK
UniProt P62166, whole entry, looked up: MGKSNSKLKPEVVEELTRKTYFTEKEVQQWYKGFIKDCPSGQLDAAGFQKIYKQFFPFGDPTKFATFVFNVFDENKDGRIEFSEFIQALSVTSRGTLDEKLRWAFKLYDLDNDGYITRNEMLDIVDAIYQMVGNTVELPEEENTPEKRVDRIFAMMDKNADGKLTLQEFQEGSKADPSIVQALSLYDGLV
UniProt P43490: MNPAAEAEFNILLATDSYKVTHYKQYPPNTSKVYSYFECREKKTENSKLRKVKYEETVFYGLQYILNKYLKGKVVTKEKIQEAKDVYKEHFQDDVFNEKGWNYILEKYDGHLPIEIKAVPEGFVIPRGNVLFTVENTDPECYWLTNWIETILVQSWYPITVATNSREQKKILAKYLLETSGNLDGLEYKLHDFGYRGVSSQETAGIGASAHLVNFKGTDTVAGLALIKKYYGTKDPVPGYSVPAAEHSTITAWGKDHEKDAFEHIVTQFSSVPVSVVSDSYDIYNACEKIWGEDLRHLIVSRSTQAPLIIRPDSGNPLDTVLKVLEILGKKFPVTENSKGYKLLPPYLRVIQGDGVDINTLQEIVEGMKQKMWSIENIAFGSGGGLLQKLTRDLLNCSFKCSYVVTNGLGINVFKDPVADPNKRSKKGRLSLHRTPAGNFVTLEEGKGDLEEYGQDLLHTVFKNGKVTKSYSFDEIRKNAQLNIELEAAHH
UniProt O76041: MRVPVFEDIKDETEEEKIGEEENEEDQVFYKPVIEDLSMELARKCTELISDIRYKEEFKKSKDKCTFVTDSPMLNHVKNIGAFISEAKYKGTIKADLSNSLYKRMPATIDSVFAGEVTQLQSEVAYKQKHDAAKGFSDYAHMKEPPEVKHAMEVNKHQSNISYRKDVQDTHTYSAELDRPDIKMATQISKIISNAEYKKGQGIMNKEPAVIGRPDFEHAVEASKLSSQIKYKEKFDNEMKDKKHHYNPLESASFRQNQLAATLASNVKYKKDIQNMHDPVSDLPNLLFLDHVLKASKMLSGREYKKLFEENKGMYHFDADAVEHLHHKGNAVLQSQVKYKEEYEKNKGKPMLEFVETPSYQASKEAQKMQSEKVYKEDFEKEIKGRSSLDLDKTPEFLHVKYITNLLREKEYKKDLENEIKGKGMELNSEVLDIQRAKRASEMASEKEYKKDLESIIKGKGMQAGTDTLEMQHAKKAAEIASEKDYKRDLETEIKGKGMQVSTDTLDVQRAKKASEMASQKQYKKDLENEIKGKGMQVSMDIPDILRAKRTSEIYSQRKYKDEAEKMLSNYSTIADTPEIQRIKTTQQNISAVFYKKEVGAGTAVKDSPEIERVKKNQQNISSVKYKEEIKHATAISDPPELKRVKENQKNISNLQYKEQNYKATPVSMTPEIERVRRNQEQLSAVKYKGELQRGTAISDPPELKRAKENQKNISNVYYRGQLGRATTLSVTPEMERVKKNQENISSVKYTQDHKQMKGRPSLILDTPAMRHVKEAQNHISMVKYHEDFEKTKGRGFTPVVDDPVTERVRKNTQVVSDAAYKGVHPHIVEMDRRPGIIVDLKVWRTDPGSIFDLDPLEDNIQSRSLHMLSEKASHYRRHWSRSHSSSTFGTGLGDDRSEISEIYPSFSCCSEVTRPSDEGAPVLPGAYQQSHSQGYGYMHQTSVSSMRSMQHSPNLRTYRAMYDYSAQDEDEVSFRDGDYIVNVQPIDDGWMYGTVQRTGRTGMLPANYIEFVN
UniProt O43676, whole entry, looked up: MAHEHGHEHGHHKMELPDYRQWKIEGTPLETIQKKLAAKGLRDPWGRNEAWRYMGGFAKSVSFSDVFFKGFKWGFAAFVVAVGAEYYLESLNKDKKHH
UniProt Q9NVZ3: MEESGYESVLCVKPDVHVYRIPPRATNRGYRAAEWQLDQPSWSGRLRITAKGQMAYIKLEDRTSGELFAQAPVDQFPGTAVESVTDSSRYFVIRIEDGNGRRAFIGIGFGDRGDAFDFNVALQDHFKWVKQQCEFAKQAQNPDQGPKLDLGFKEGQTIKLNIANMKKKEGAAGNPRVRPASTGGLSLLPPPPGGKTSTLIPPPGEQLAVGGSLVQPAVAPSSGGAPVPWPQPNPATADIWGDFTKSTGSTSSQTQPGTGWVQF
UniProt Q8NC96: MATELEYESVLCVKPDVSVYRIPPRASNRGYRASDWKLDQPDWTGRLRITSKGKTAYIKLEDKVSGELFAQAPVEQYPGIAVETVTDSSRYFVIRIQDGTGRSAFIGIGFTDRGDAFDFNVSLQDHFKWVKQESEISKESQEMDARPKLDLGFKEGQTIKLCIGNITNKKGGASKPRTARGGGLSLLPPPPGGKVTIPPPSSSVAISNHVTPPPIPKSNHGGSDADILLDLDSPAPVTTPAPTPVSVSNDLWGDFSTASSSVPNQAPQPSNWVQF
UniProt O43677, whole entry, looked up: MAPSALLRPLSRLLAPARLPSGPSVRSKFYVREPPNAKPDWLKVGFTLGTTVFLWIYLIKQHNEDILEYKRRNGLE
UniProt P56181: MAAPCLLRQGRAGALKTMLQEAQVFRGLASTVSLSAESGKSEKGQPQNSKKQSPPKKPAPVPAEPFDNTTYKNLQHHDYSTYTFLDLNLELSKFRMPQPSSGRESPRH
UniProt Q9GZM8: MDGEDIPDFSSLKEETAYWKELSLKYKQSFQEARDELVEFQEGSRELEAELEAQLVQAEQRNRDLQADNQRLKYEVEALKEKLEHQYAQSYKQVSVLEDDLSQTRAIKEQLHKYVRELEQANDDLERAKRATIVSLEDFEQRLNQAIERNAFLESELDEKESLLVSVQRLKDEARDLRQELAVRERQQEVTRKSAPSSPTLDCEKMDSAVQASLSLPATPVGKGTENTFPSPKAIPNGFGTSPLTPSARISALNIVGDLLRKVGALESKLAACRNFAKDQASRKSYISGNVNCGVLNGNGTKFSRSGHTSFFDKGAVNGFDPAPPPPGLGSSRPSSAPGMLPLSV
UniProt O95298, whole entry, looked up: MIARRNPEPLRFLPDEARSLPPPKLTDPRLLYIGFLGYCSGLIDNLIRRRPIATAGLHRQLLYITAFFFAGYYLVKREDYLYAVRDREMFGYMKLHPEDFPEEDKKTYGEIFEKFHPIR
UniProt O75113: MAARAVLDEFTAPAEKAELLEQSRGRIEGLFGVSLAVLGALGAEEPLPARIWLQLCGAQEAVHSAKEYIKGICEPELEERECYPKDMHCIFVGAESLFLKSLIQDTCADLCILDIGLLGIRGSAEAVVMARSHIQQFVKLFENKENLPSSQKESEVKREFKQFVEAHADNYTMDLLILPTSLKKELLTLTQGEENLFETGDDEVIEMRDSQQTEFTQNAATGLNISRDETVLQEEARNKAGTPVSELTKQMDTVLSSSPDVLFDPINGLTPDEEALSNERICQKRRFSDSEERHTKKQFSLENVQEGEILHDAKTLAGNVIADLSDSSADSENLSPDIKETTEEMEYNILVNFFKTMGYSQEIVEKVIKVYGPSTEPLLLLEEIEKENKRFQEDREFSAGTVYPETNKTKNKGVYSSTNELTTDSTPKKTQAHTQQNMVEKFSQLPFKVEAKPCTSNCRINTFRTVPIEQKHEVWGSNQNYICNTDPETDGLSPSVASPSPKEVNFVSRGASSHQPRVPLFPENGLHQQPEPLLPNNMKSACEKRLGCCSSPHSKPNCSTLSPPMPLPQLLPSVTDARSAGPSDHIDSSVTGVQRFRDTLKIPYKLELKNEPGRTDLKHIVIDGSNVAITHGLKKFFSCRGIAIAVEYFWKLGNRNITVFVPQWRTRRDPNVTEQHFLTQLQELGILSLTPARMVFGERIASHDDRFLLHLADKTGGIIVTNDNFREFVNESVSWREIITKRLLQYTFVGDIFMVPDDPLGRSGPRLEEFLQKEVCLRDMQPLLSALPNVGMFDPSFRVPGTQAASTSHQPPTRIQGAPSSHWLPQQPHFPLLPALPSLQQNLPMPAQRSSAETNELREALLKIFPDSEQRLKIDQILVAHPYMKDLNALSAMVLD
UniProt Q68D85: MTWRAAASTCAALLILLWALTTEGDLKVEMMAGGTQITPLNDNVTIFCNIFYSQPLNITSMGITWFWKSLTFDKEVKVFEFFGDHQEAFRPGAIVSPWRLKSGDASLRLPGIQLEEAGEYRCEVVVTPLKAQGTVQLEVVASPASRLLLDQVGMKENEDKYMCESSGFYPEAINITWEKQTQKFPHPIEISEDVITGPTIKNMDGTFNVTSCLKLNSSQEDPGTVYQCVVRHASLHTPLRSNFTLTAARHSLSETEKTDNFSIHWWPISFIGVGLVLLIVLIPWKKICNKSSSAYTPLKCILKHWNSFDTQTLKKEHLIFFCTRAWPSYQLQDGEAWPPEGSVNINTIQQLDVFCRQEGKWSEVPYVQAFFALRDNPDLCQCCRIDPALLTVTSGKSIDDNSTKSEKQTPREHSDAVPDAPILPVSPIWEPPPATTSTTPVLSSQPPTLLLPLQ
UniProt E9PAV3, whole entry, looked up: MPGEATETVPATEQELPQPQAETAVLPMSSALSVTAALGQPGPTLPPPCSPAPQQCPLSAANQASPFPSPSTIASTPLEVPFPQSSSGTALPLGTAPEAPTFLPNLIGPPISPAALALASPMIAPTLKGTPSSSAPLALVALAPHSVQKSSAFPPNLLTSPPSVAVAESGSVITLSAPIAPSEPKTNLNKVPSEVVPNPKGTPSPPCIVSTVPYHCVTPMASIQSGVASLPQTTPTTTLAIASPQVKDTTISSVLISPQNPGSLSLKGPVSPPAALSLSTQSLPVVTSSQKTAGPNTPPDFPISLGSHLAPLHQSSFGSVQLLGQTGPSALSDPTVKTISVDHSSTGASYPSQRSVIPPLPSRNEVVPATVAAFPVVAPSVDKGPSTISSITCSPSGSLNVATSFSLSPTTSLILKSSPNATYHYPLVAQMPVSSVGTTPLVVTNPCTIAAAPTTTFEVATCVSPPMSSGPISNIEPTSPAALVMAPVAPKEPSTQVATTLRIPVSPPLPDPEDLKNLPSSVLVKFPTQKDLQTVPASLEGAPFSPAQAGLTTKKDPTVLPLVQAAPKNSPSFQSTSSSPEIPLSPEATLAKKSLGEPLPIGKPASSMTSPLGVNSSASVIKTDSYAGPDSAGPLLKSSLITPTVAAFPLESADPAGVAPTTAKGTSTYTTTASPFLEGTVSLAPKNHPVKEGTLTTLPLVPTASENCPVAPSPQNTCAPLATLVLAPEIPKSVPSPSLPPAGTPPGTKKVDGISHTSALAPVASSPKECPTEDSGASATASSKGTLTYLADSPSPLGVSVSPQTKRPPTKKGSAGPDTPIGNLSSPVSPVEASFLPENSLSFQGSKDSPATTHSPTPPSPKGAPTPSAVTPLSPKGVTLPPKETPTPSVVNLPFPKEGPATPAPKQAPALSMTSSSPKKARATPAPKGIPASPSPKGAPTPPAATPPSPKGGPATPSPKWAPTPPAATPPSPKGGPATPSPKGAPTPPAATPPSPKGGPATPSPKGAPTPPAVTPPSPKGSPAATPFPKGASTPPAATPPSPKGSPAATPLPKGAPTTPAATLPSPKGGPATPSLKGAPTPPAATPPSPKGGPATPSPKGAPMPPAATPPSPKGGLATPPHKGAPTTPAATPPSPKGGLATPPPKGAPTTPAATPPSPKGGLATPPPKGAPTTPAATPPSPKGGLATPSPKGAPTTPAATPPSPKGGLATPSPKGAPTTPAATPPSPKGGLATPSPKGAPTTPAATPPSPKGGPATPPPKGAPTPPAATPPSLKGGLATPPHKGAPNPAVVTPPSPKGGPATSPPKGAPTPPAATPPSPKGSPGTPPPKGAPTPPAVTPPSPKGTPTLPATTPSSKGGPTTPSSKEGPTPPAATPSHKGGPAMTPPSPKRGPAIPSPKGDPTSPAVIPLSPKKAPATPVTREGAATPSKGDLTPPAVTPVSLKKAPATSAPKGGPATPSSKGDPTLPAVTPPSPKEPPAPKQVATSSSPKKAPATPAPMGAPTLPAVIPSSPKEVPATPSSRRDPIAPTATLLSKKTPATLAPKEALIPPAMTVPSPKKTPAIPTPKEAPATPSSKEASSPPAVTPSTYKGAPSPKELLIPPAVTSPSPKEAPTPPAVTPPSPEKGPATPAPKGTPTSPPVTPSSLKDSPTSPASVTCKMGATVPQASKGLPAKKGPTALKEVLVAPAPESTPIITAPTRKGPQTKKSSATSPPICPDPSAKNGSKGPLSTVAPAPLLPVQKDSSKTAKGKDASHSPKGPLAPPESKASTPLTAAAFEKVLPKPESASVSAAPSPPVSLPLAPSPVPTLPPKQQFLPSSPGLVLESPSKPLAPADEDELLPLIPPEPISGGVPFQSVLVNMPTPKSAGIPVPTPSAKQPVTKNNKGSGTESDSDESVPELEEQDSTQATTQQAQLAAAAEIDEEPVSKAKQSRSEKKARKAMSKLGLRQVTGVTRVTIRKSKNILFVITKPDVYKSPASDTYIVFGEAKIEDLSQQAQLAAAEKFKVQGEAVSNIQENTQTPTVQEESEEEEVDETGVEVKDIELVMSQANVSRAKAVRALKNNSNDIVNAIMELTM

The other results are listed elsewhere or left out.

Compound in the assay: c1cn2cc(-c3ccc4cn[nH]c4c3)nc(Nc3ccc(N4CCOCC4)cc3)c2n1 [entospletinib]
As to the kind of experiment: log2 fold change, soluble protein after heating vs DMSO (PISA); higher = thermal stabilisation; K562 cells, 10 uM, 30 min; active = over 0.2 and 3.5 SD of the protein, either way, in both replicates (recomputed). In a few lines:
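K562 cells (2×10^6 cells/mL) were treated with 10 μM compound for 30 min, and aliquots were heated for 3 min over 48°C-58°C. Pooled aliquots were extracted in PBS with 0.5% NP-40 at 4°C, and the supernatant after 21,000xg for 90 min was measured by TMTpro 16plex LC-MS/MS with channel sums equalised. Reported thermal stability, relative to control samples and from duplicates, is a log2 fold change.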
Regarding NAP1L5 (UniProt Q96NT1), the log2 fold change was inactive: -0.121.
To NAA15 (UniProt Q9BXJ9) belongs inactive: -0.049; to NDC80 (UniProt O14777), inactive: 0.255.
For NCOA6 (UniProt Q14686), the log2 fold change was inactive: 0.027.
Under NCK2 (UniProt O43639) stands inactive: -0.196; under NCS1 (UniProt P62166), inactive: 0.04; under NDUFS1 isoform 2 (UniProt P28331), inactive: 0.026.
Turning to NBEAL2 (UniProt Q6ZNJ1), the log2 fold change is inactive: -0.165.
To NAMPT (UniProt P43490) belongs inactive: 0.001; to NAT10 (UniProt Q9H0A0), inactive: 0.002; to NEBL isoform 2 (UniProt O76041), inactive: 0.024.
To NEBL (UniProt O76041) belongs inactive: -0.064; to NAPRT (UniProt Q6XQN6), inactive: -0.029; to NDUFB3 (UniProt O43676), inactive: 0.049.
Under NACA4P (UniProt Q9BZK3) stands inactive: -0.044; under NDUFB9 (UniProt Q9Y6M9), inactive: 0.053; under NECAP2 (UniProt Q9NVZ3), inactive: -0.001.
With NCOR2 (UniProt C9J0Q5), the log2 fold change was inactive: -0.013.
To NECAP1 (UniProt Q8NC96) belongs inactive: -0.035.
As for NDUFC1 (UniProt O43677), the log2 fold change is inactive: -0.012.
Under NDST1 (UniProt P52848) stands inactive: 0.169; under NDOR1 isoform 2 (UniProt Q9UHB4), inactive: -0.167; under NEDD1 isoform 3 (UniProt Q8NHV4), inactive: -0.022.
Under NDUFV3 (UniProt P56181) stands inactive: -0.025.
For NDEL1 isoform 2 (UniProt Q9GZM8), the log2 fold change was inactive: -0.037.
Regarding NANP (UniProt Q8TBE9), the log2 fold change was inactive: 0.082.
For the target NCSTN (UniProt Q92542), the log2 fold change is inactive: -0.044.
For NDUFC2 (UniProt O95298), the log2 fold change is inactive: -0.073.
Under N4BP1 (UniProt O75113) stands inactive: -0.124; under NDE1 isoform 1 (UniProt Q9NXR1), inactive: 0.02; under NCR3LG1 (UniProt Q68D85), inactive: 0.308.
For NDUFA8 (UniProt P51970), the log2 fold change was inactive: -0.011.
With NDUFAF3 (UniProt Q9BU61), the log2 fold change was inactive: -0.015.
Under NDUFV3 isoform 2 (UniProt P56181) stands inactive: 0.042.
Under NACA (UniProt E9PAV3) stands inactive: -0.014.
